For this data set, the system named is flavoHb heme (Fe^2+ / Fe^3+). How it is done:
FAD and heme reduction were monitored by following the changes in flavoHb absorbance at 460 and 430 nm, respectively, with stopped-flow rapid mixing of 50 μM NADH and 10 μM flavoHb in N2-purged buffer ([4]). O2, NO, and CO association rate constants were determined by photolyzing 50 μM of the respective ferrous flavoHb species with a 300-ns pulse from a 577-nm laser and by spectrophotometrically following ligand reassociation in O2-, NO-, or CO-saturated buffer unless otherwise indicated ([4], [5]). […] Binding of NO was measured by the change of absorbance at 422 nm by applying a difference extinction coefficient of 0.040 μM^−1 cm^−1. O2 and CO dissociation rate constants were determined by stopped-flow rapid mixing with either CO or NO displacement ([4], [5]). The cuvette path length was 1.0 cm. All reactions were at 20 °C in filtered 100 mM sodium phosphate buffer, pH 7.0, containing 0.3 mM EDTA. Catalase (1000 U/ml) was included in all reactions containing O2 to scavenge H2O2 produced by the NADH oxidase activity of flavoHb and to regenerate O2.

The mark [1] stands for this setting: Fe2+ CO, 100 µM CO in the presence of 0.6 mM N2.
Setting [2] is: Fe2+ O2, 100 µM CO in the presence of 1 mM O2.

Read-outs that look alike come from different tables or passages of the source.

B1: WT: wild-type E. coli flavohemoglobin (flavoHb), an NO dioxygenase (NOD) (protein, UniProt P24232 1-396, looked up)
Flavohemoprotein: MLDAQTIATVKATIPLLVETGPKLTAHFYDRMFTHNPELKEIFNMSNQRNGDQREALFNAIAAYASNIENLPALLPAVEKIAQKHTSFQIKPEQYNIVGEHLLATLDEMFSPGQEVLDAWGKAYGVLANVFINREAEIYNENASKAGGWEGTRDFRIVAKTPRSALITSFELEPVDGGAVAEYRPGQYLGVWLKPEGFPHQEIRQYSLTRKPDGKGYRIAVKREEGGQVSNWLHNHANVGDVVKLVAPAGDFFMAVADDTPVTLISAGVGQTPMLAMLDTLAKAGHTAQVNWFHAAENGDVHAFADEVKELGQSLPRFTAHTWYRQPSEADRAKGQFDSEGLMDLSKLEGAFSDPTMQFYLCGPVGFMQFTAKQLVDLGVKQENIHYECFGPHKVL
For the molecule B1, the “fraction of fast phase” value by setting is: under setting [1], 56%; under setting [2], 64%; (Fe^2+ CO, 20 °C) 72%; (Fe^2+ NO, 20 °C) 57%; (Fe^2+ O2, 20 °C) 90%; (Fe^3+ NO, 20 °C) 57%. Also, the “fraction of slow phase” value under setting [1] is 44%; the “fraction of slow phase” value under setting [2] was found to be 36%; the “fraction of slow phase” value (Fe^2+ CO, 20 °C) was 28%; the “fraction of slow phase” value (Fe^2+ NO, 20 °C) is listed as 43%; the “fraction of slow phase” value (Fe^2+ O2, 20 °C) is 10%; the “fraction of slow phase” value (Fe^3+ NO, 20 °C) came to 43%. In addition, the Φdis is, setting by setting: under setting [1], 15%; under setting [2], 4%; (Fe^2+ CO, 20 °C) 13%; (Fe^2+ NO, 20 °C) 4.4%; (Fe^2+ O2, 20 °C) 1.6%; (Fe^3+ NO, 20 °C) 22%.

These data come from article PMC7948479, “Allostery in the nitric oxide dioxygenase mechanism of flavohemoglobin” (The Journal of Biological Chemistry, 2020).
